# Test results reported in PMC8063757, “The DNA-binding protein HU is a molecular glue that attaches bacteria to extracellular DNA in biofilms” (The Journal of Biological Chemistry, 2020).
# By UniProt entry, the sequences of proteins in these tests, tags left out. Where a name states a change or a piece, a line headed by the entry shows the natural chain unless it says otherwise.
# UniProt P0ACF0: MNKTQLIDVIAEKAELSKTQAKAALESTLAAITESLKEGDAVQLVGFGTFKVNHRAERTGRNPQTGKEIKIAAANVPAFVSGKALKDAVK
# The exact form of at least one protein or probe is not confirmed. At least one verdict rests on a figure or table, not on a statement of the authors.
# Target: HU-A (Escherichia coli K-12) (UniProt P0ACF0)
# Experiment: EMSA
# Conditions: EMSA on 0.7% or 1% agarose gels, EtBr stain; binding buffer, pH and temperature not stated; recombinant protein; residues 1-90; protein details: N-term 6xHis (MRGSHHHHHHGS); label: none (EtBr stain); folded or branched DNA
sequence,measurement,value
CCCTATAACCCCTGCATTGAATTCCTGTCTGATAA / GTAGTCGTGATAGGTGCAGGGGTTATAGGG / AACAGTAGCTCTTAATTCGAGCTCGCGCCCTATCACGACTA / TTTATCAGACTGGAATTCAAGCGCGAGCTCGAATAAGAGCTACTGT [4WJ DNA],binding result,binds
